# These are yes or no findings as the source states them, for the method shown. Some binding calls cover weakened binding; strength is not graded here. Where a sequence is shown, tags or fusion partners need not be part of it.
# Amino acid sequences for entries named in this document (tags omitted). Residues count along the entry.
# UniProt P35747, residues 25-607: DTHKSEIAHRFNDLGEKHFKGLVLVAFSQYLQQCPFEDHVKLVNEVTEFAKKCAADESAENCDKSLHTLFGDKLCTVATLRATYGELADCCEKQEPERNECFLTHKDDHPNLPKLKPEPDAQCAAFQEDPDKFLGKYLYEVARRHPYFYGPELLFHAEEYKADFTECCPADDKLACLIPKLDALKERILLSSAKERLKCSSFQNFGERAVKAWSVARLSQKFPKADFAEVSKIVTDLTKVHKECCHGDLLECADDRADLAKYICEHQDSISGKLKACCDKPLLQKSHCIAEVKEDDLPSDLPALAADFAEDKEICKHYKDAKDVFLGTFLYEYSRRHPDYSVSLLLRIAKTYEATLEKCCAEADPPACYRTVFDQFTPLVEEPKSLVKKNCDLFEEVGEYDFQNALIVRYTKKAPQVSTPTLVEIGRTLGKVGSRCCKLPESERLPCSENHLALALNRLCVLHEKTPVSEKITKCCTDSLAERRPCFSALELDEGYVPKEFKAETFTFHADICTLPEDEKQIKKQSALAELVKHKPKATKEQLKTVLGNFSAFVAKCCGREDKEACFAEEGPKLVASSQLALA
# Target: 马血清(含马血清白蛋白) (horse serum, containing horse serum albumin) (horse) (UniProt P35747)
# Experiment: ELISA, horse serum coated, A650
binder,measurement,value
"融合蛋白HF11-FC (expressed from pcDNA3.1 in 293F cells) (Fc fusion, not shown: a dimerising Fc or GST; small tags and cut ends) QVQLLESGGGLVQPGGSLRLSCAASGVKISYESMAWVRQAPGKGLEWVSSILMQNGSTYYADSVKGRFTISRDNSKNTLYLQMNSLRAEDTAVYYCATTRVRRPANMKYWGQGTLVTVSS",binding,binds
